The full ranking holds about 33,000 sequences; the median of “E-score (-0.5 to 0.5)” is about -8e-05, and the highest 2% start at about 0.23. Some of the results follow.
These sequences were tested against T1, Nrg2 (UniProt P38082) (assay: PBM E-score (8-mer binding enrichment) (E-score (-0.5 to 0.5)); higher = stronger / more preferred TF binding). Conditions: protein concentration: 100 nM; construct: GST-full length.
T1 sequence: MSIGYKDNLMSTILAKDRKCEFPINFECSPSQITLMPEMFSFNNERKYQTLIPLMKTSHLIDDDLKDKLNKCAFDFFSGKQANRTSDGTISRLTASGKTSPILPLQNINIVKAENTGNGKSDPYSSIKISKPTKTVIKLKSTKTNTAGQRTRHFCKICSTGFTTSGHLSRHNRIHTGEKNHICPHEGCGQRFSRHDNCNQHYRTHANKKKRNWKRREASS
Procedure, shortened: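 Universal all-10-mer Agilent arrays, double-stranded by primer extension on fresh or once-stripped slides, were probed with about 100-200 nM GST-tagged yeast transcription factors made by PURExpress. Fluorescent anti-GST detected bound protein, and masliner normalised the scans. E-scores from the Universal PBM Analysis Suite were given to each ungapped eight-base word pooled with its reverse complement.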

Sequence	PBM E-score
GGCCAGGA	0.022
CGTGTCCC	-0.104
CATAAATG	-0.0903
AACTTACA	-0.00732
GCTAACGA	0.00599
ACACCCAT	0.107
CATCTTTC	0.0807
GCGCTACA	-0.0171
AATGGCGT	0.0608
AAATTCCC	-0.0547
AAATGTCC	-0.181
GGGGGATA	-0.305
AAGGCACG	0.184
AAGTAAGA	0.0208
AACAAGCG	0.147
CCTTACAC	-0.0485
TACACAGA	0.0516
TACCGAAA	-0.0545
AAGAAGCT	-0.0615
ATGCTTAG	0.0462
CTTAGCGA	-0.00987
GCGTTGCC	0.117
AGCGCCTG	-0.1
ACTTACAC	-0.0439

Sequence	PBM E-score
GACCATTA	-0.084
AATGAGTC	0.0517
CAATGTCG	0.123
GGACGCCA	-0.149
CATAGGGG	0.138
GCCGACCA	-0.0502
AGACTACT	0.0253
ACAAATGA	0.0346
AGGTAAGG	0.0256
CGAGCCGC	0.0171
ATCCTAAC	0.132
AGAGACAA	-0.0415
TGAGCTAA	-0.115
CAAACTCC	0.0622
GATAGGCA	0.00785
GGAGCTAA	-0.14
AACATGGT	-0.0362
TATGAAAA	0.106
GAACTGGA	0.161
ATGGTCAG	0.22
CGCGTGAA	0.113
AGGATTAA	0.0186
GACTTGAC	-0.199
CCCTGTCC	0.0104

Sequence	PBM E-score
AATGAAGC	-0.0531
CCGTCTTA	-0.209
CGAATGTA	-0.0454
AATCGCTG	0.0248
ATGTAATC	-0.038
AATCCCCC	-0.367
GCGGCAAA	0.0297
CTGCAAAC	-0.115
CGCCATTA	0.0563
CAGCAAGA	0.135
CAATATTA	0.154
CTCCTAAA	-0.27
TAGGAAAA	-0.00822
ACCGCTTA	-0.143
AAGCTCGG	0.0866
AGAGCTGA	0.00384
AGAGATTG	0.108
ATTGTTCC	0.0549
AGTCGGCA	-0.0423
GCGCAGCC	-0.155
AGGCGGAG	0.0503
AACGGAGC	-0.122
CCCCGTAC	-0.0792
GGCTGCCA	-0.173

Sequence	PBM E-score
AAGTCACT	-0.0972
CACACGTC	-0.119
CAGATGTC	-0.0913
ACTCCCGG	-0.0764
CCTCCCTA	-0.208
CTCAGCTC	-0.0635
GATGGAGA	-0.0382
ATGACAGC	0.0799
GAGGAAGC	-0.081
CTCGATCC	-0.0858
CTTTAAGC	0.0711
ACGGGGCC	0.0169
CTCTACCC	0.0309
GGGAACAC	0.00396
AAGATCTC	-0.167
CGACCAAC	-0.0659
AATACTAG	0.241
AGACACCG	-0.0381
TCATCAGA	0.0269
ACCCATGC	-0.0641
GGTGGTAC	-0.202
AACCAACG	-0.0329

Reformatted with bars between the fields: part of the list above
Sequence | PBM E-score
CTCTACCC | 0.0309
GGGAACAC | 0.00396
AAGATCTC | -0.167
CGACCAAC | -0.0659
